A short description of the assay: qHTS Assay to Find Inhibitors of Chronic Active B-Cell Receptor Signaling. The conditions noted are these: ABC-DLBCL IkBa-CBG/CBR reporter, luminescence ratio (green luciferase fused to IkBa over red control in TMD8 lymphoma cells), 4 h. The essentials:
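Concentration-response series (up to 46 uM) were applied to TMD8 dual-reporter cells for 4 h at 37C with doxycycline. Green/red ratio, after filter-overlap correction, defined %Activity; red signal alone was normalised to basal cells and zero luminescence.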
On the technique in general: qHTS replaces the single test concentration by a dilution series.

The mark [1] stands for this setting: measured here: CBR red luminescence, cell number.
Setting [2] is: measured here: IkBa-CBG green luminescence.

This is an account of results in PubChem BioAssay AID493014 (National Center for Advancing Translational Sciences (NCATS), 2011).

The list shows a part of the results. These are further read-outs of the screen, such as a control signal, another cell line or another target. No call is given for them. Most of these compounds were active or inconclusive in the main read-out, so they are no random draw. The note in brackets gives the kind of curve behind each potency; many fits are weak. Square brackets hold non-standard residues; d marks the D form. Peptide text beside a SMILES is read from it. * marks the point of attachment. Tos = Cc1ccc(S(=O)(=O)*)cc1

With `C=CCn1c(SCC(=O)c2ccccc2)nnc1-c1ccc2c(c1)OCO2`, the AC50 under setting [1] was 29.1 µM [rising, single point].
With `O=C(NC1CCCc2c1cnn2-c1ccc(F)cc1F)c1cnccn1` (stereo not given), the AC50 under setting [1] was 35.5 µM [rising, single point].
The same measure, in the same setting: with `Clc1cccc(/C=N/Nc2nnc(Cl)c3ccccc23)c1` the figure was 0.447 µM [rising, full curve, poor fit].
Still for that read-out and setting: under `O=C(NC1CCCC1)c1c(O)nc2sccn2c1=O` stands 18.4 µM [falling, single point].
On to `COc1ccc(NC(=O)c2cc3ccccc3cc2OC)cc1`, for which the AC50 under setting [1] was 0.562 µM [rising, full curve].
On to `Cc1ccc(S(=O)(=O)N[C@@H](Cc2ccccc2)C(=O)N2CCC[C@@H]2C(=O)O)cc1` (Tos-Phe-[dP]-OH), for which the half-maximal activity concentration (AC50) under setting [1] is 6.31 µM [rising, partial curve, poor fit].
On to `COC(=O)/C=C/C(=O)N1CCN(c2ccccc2C)CC1`, for which the concentration at half-maximal activity (AC50) under setting [1] was 29.1 µM [falling, single point].
Turning to `COc1cc(NC(=O)CSc2nnc3n2C(C)(C)Cc2ccccc2-3)cc(OC)c1`, the AC50 under setting [1] is 35.5 µM [falling, single point].
For `CCOc1ccccc1OCCCNCc1ccccc1`, the AC50 under setting [1] was 28.2 µM [rising, partial curve, poor fit].
Still for that read-out and setting: with `CN1C(=O)CC(N2CCN(C(=O)c3ccccc3)CC2)C1=O` (stereo not given) the figure was 9.2 µM [rising, partial curve]; with `CCC(=O)Nc1cccc(NC(=S)NC(=O)c2cccs2)c1`, 9.2 µM [falling, partial curve].
For the compound `CC(C)Oc1ccc(OCCn2c(=S)[nH]c3c(N)ncnc32)cc1`, the AC50 under setting [1] is 12.6 µM [rising, partial curve].
Same read-out and setting: with `Cc1ccc2[nH]c3c(=O)n4c(nc3c2c1)SCC4` the figure was 0.112 µM [falling, full curve, poor fit].
As for `Cc1cc(C(=O)Nc2ccccc2Cl)n(-c2ccccc2)n1`, the AC50 under setting [1] is 11.2 µM [falling, single point].
Same read-out and setting: under `O=C(CCl)N1CCN(S(=O)(=O)c2ccc3ccccc3c2)CC1` stands 11.2 µM [falling, partial curve, poor fit].
Still for that read-out and setting: with `Clc1ccc(-c2csc(=Nc3cccnc3)n2CCCn2ccnc2)cc1Cl` the figure was 1.03 µM [rising, full curve, poor fit]; with `COc1ccc2c(c1)cc1n2CCN2CCCN=C12`, 20.6 µM [rising, partial curve, poor fit].
As for `CCOc1cc(C(=O)OC(C)C(=O)Nc2ccc(S(N)(=O)=O)cc2)ccc1OCC(=O)N1CCOCC1` (stereo not given), the AC50 under setting [1] is 7.31 µM [rising, partial curve, poor fit].
For the compound `Cc1ccc(N(CC(=O)NCc2ccco2)S(=O)(=O)c2ccccc2)cc1`, the AC50 under setting [1] is 35.5 µM [falling, single point].
For `CCOC(=O)[C@H]1[C@H]2COc3ccc(C)cc3[C@@H]2N2C(=O)c3ccc(C)cc3NC(=O)[C@@]12C`, under setting [1], the AC50 was 16.4 µM [falling, single point].
With `Cc1cc(C)nc(NNC2=CC(=O)CC(C)(C)C2)n1`, the AC50 under setting [1] was 7.94 µM [falling, partial curve].
Consider `C[C@@H](C(=O)NCCc1c[nH]c2ccccc12)[C@@H]1C[C@@]1(C)[C@@H](NC(=O)OCc1ccccc1)c1ccccc1`, for which, under setting [1], the AC50 is 16.4 µM [falling, single point].
Turning to `COC(=O)Nc1ccc(S(=O)(=O)N2CCCC(C(=O)Nc3cccc4c3OCCO4)C2)cc1` (stereo not given), the AC50 under setting [1] is 0.731 µM [rising, full curve, poor fit].
As to `Cc1ccc(Nc2c([N+](=O)[O-])c(=O)n(C)c3ccccc23)cc1`, the AC50 under setting [1] was 2.82 µM [falling, partial curve, poor fit].
`CN(C)S(=O)(=O)c1cc(NC(=O)c2cc(=O)c3ccccc3o2)ccc1Cl`: the AC50 under setting [1] was 22.4 µM [falling, single point].
In the case of `CCOC(=O)c1c(C2CC2)csc1NC(=O)COC(=O)c1ccc[n+]([O-])c1`, the AC50 under setting [1] was 32.6 µM [falling, partial curve, poor fit].
Turning to `C=CCn1c(-c2cc(OC)c(OC)c(OC)c2)n[nH]c1=S`, the AC50 under setting [1] is 29.1 µM [rising, single point].
Consider `CC1CCC2(CC1)NC(=O)N(CC(=O)c1ccc[nH]1)C2=O` (stereo not given), for which, under setting [1], the AC50 is 0.517 µM [falling, full curve].
For `COc1cc2cc(C(=O)O)n(C)c2c(OC)c1OC`, the AC50 under setting [1] is 17.8 µM [rising, partial curve, poor fit].
For `Cc1noc(C)c1COc1cccc(C(=O)Nc2ccccc2)c1`, under setting [1], the AC50 was 8.2 µM [rising, partial curve, poor fit].
As to `CCOC(=O)CN(C(=O)COc1ccc2c(C)cc(=O)oc2c1)c1ccc(OCC)cc1`, the AC50 under setting [1] is 35.5 µM [rising, partial curve, poor fit].
Regarding `CSc1ccc(C(=O)N2CCC(n3nccc3NC(=O)C3CC3)CC2)cc1`, the AC50 under setting [1] is 31.6 µM [rising, single point].
With `Fc1c(F)c(F)c(CSc2nc3ccccc3[nH]2)c(F)c1F`, the AC50 under setting [1] was 3.66 µM [falling, partial curve, poor fit].
For `S=c1[nH]ncn2c1cc1oc3ccccc3c12`, under setting [1], the AC50 was 0.631 µM [rising, partial curve, poor fit].
Take `CNC(=S)N1N=C2c3ccccc3CCC2C1c1ccccc1Cl` (stereo not given): the AC50 under setting [1] was 2.82 µM [falling, partial curve, poor fit].
Regarding `COC(=O)C(CCSC)NC(=O)c1cc2c(n(-c3ccccc3)c1=O)CCCC2=O` (stereo not given), the AC50 under setting [1] is 22.4 µM [falling, partial curve].
For the compound `COc1ccc(CNC(=O)NCCc2c[nH]c3ccccc23)cc1`, the AC50 under setting [1] is 35.5 µM [falling, single point].
With `COCCN(Cc1cc2cc3c(cc2nc1Cl)OCO3)C(=O)c1ccc(C)cc1`, the AC50 under setting [1] was 8.91 µM [falling, partial curve].
Take `COc1ccc(C(=O)CCC(=O)Nc2ccccc2C)cc1`: the AC50 under setting [1] was 20 µM [falling, partial curve, poor fit].
For the compound `Nc1ccc2cn[nH]c2c1`, the AC50 under setting [1] was 17.8 µM [falling, single point].
Take `Cn1c(=O)c2c(nc(SCCN3CCOCC3)n2Cc2ccccc2)n(C)c1=O`: the AC50 under setting [1] was 29.1 µM [falling, partial curve, poor fit].
`COc1ccc(/C=N/NC(=O)c2nn(C)cc2Br)cc1CSCc1ccco1`: the AC50 under setting [1] is 17.8 µM [falling, partial curve, poor fit].
On the same count and under the same terms, with `CCOc1ccccc1NC(=O)Nc1ccc(OC)nc1` the figure was 1 µM [falling, full curve, poor fit].
In the case of `NC(=O)c1ccccc1NC(=S)NC(=O)CCc1ccccc1`, the AC50 was 20.6 µM [rising, partial curve] under setting [1] and 20.6 µM [falling, single point] under setting [2].
With `CN(C)S(=O)(=O)N1CCC(Oc2cccc(C(=O)NCCC3=CCCCC3)c2)CC1`, the AC50 under setting [1] is 2.82 µM [falling, full curve].
Take `CC(C)C[C@H](NC(=O)c1[nH]cnc1C(=O)N[C@@H](C)c1ccccc1)C(=O)OC(C)(C)C`: the concentration at half-maximal activity (AC50) under setting [1] is 35.5 µM [falling, single point].
Regarding `COc1cc(SC#N)ccc1N=Cc1c(C)[nH]n(-c2ccc(Cl)cc2)c1=O`, the AC50 under setting [1] was 0.316 µM [rising, full curve, poor fit].
The same measure, in the same setting: with `Cc1ncoc1C(=O)Nc1ncc([N+](=O)[O-])s1` the figure was 8.91 µM [falling, partial curve, poor fit].
`Cc1onc(-c2ccccc2Cl)c1C(=O)Nc1nnc(-c2ccc(F)cc2)s1`: the AC50 under setting [1] is 2.59 µM [rising, partial curve].
Consider `CCOc1ccccc1OCCCC(=O)Nc1cccc(-n2cnnn2)c1C`, for which the AC50 under setting [1] is 9.2 µM [rising, partial curve, poor fit].
Take `Cc1ccc(NC(=O)c2ccc(NS(=O)(=O)/C=C/c3ccccc3)cc2)nc1`: the AC50 under setting [1] is 35.5 µM [falling, single point].
With `O=C(Nc1ccc(Cl)cc1)OCc1cn(-c2ccccc2)nn1`, under setting [1], the AC50 was 5.01 µM [rising, partial curve, poor fit].
`COc1ccccc1-n1nnnc1SCc1cc2c(cc1Br)OCO2`: the AC50 under setting [1] is 29.1 µM [rising, single point].
Take `CCc1ccc(NC(=O)c2ccc(S(=O)(=O)NCc3cccnc3)cc2)cc1`: under setting [1], the AC50 was 10 µM [rising, partial curve].
Take `COc1ccc([C@]2(C(C)C)ON(c3ccccc3C(F)(F)F)C2=O)cc1`: under setting [1], the AC50 is 23.1 µM [falling, single point].
As to `CCOc1ncccc1C(=O)Nc1ccc(Cl)c(S(=O)(=O)N2CCCC2)c1`, the half-maximal activity concentration (AC50) was 3.16 µM [falling, partial curve, poor fit] under setting [1] and 0.631 µM [rising, full curve, poor fit] under setting [2].
Consider `CCCCCCN1N=C(C)C(C(=O)c2ccc(Cl)cc2)C1=O` (stereo not given), for which, under setting [1], the AC50 was 20 µM [falling, single point].
With `OCC1(Cc2cccc(F)c2)CCN(Cc2ccc3cccc(F)c3n2)CC1`, the AC50 under setting [1] was 35.5 µM [falling, single point].
As for `CCOc1ccccc1C1c2[nH]c3ccccc3c2C[C@H]2C(=O)N(C3CCN(Cc4ccccc4)CC3)CC(=O)N12` (stereo not given in full), the AC50 under setting [1] was 5.01 µM [falling, full curve, poor fit].
In the case of `COc1ccc([N+](=O)[O-])cc1NCc1ccccc1`, the AC50 under setting [1] was 6.51 µM [rising, full curve].
On the same count and under the same terms, with `CC(C)C(=O)Nc1nnc(CCN2CCCCC2)s1` the figure was 32.6 µM [rising, single point]; with `CCCN(CC(=O)Nc1ccccc1C)C(=O)C1CC(=O)N(c2ccc(CC)cc2)C1` (stereo not given), 0.411 µM [rising, partial curve, poor fit]; with `C/C(=N/NC(=O)c1ccoc1C)c1cccc(NC(=O)C2CC2)c1`, 11.6 µM [falling, partial curve].

A word on the AC50: it is the concentration at which the activity in the assay is half-maximal.
